{
  "source": "patent US4072668A",
  "about": "“LH-RH Analogs” (The Salk Institute for Biological Studies, priority 1974, dated 1978)",
  "key": {"[1]": {"system": "dispersed rat pituitary cells", "assay": "In vitro suppression of LRF-generated LH secretion in dispersed rat pituitary cell culture", "format": "cell-based", "settings": "molar ratio of peptide to LRF; culture inoculated with 3×10^-5 M of LRF", "experimental": "Using the above method, the peptide compositions set forth below in Tables I and II were prepared. The peptide compositions were assayed in vitro and in vivo. The in vitro assay was made using a 5 day old primary culture of dispersed rat pituitary cells. The LH secreted in response to the peptide compositions was assayed by specific radioimmunoassay for rat LH. The peptide compositions were applied to the culture at a level of 3×10^-5 M. The potency of these peptide compositions which stimulate secretion of gonadotropins is expressed in terms of percent LRF potency wherein LRF has a potency of 100. For those peptide compositions which are antagonistic to secretion of gonadotropins, the culture was inoculated with 3×10^-5 M of LRF and the molar ratio of the peptide required to suppress secretion of LH generated by the LRF was determined."}, "rats": {"system": "rats", "assay": "In vivo suppression of LH secretion generated by injected LRF in rats", "design": "species or system rat", "settings": "molar ratio of peptide to LRF; rats injected with 100 nanograms of LRF", "experimental": "The effectiveness of the peptide compositions which stimulate secretion of gonadotropins was determined in vivo by intravenous injection of 100 nanograms of the peptide into rats. The rats were chronically ovariectomized and were treated with estrogen and progesterone prior to assay. The LH level was determined in plasma by solid phase radioimmunoassay for rat LH. For those peptide compositions which are antagonistic to secretion of gonadotropins, the rats were injected with 100 nanograms of LRF and the molar ratio of the peptide required to suppress section of LH generated by the LRF was determined."}},
  "note": "Not every detail of the peptide structures is certain; ends, links or a residue may be inferred. Non-standard residues stand in square brackets, D forms with d. Residues, ends and D or L forms follow the SMILES beside them. pGlu = O=C1CC[C@@H](C(=O)O)N1",
  "data": [
    {"compound": "CC(C)C[C@H](NC(=O)[C@@H](CCCCN)NC(=O)[C@H](Cc1ccc(O)cc1)NC(=O)[C@H](CO)NC(=O)[C@H](Cc1c[nH]c2ccccc12)NC(=O)CNC(=O)[C@@H]1CCC(=O)N1)C(=O)N[C@@H](CCCNC(=N)N)C(=O)N1CCC[C@H]1C(=O)NCC(N)=O", "note": "[pGlu-Gly-Trp-Ser-Tyr-D-Lys-Leu-Arg-Pro-Gly] ([pGlu]GWSY[dK]LRPG-NH2)", "values": [
      {"measurement": "Molar ratio necessary to produce inhibition In Vitro", "setting": "[1]", "result": 700},
      {"measurement": "Molar ratio necessary to produce inhibition In Vivo", "setting": "rats", "result": 500}
    ]}
  ]
}
